The text below walks through data of PubChem BioAssay AID248 (DTP/NCI, 2004).

The list shows only some results of the screen, not a fair sample: it gathers tests that were run many times, whatever their T/C, doses with no T/C, and many T/C values between a quarter and a half above the control. Other doses and runs of a compound stand elsewhere. T/C gives the treated animals as a percentage of the vehicle group. Some entries give survivors of the animals treated and no T/C: the source files T/C as zero there, which appears to mark a toxic dose or a test without result, not a measured value. Some doses without a T/C left all or most animals alive at the check, yet need not have been tolerated: survival well below the control is almost never listed, so the zero probably covers shortened survival too. Survivors were counted at the toxicity check, usually on the fifth day, unless a day is given; later deaths do not show. Schedule codes are those of the source, read here as Q, the interval in days (D) or hours (H), X, the number of doses. Some entries were tested several times; their values stand side by side, smallest first. Where survival is the endpoint, this PubChem deposit counts one and a half times the control or more as active, and values a quarter to a half above the control carry no call in these data; other NCI protocols may use other cut-offs. Some T/C values carry the count of animals alive at the toxicity check (mostly the fifth day); without a count, all were alive then.

For the test, the system named is L1210 leukemia ip in BDF1 mice, survival T/C. The experiment in a line: NCI In Vivo Anticancer Drug Screen. Data for tumor model L1210 Leukemia (intraperitoneal) in B6D2F1 (BDF1) mice. The settings on record: higher T/C = longer survival.
[1] abbreviates: T/C endpoint: mean survival time, dose: 100.0 mg/kg/injection, schedule: Q01DX009 (ip), vehicle: saline with Tween-80.
[2] abbreviates: T/C endpoint: mean survival time, dose: 400.0 mg/kg/injection, schedule: Q01DX009 (ip), vehicle: saline.
[3] abbreviates: T/C endpoint: mean survival time, dose: 400.0 mg/kg/injection, schedule: Q01DX001 (ip), vehicle: carboxymethylcellulose (CMC).
[4] abbreviates: T/C endpoint: mean survival time, dose: 400.0 mg/kg/injection, schedule: Q04DX003 (ip), vehicle: saline with Tween-80.
The mark [5] stands for this setting: T/C endpoint: mean survival time, dose: 400.0 mg/kg/injection, schedule: Q01DX009 (ip), vehicle: saline with Tween-80.
[6] abbreviates: T/C endpoint: mean survival time, dose: 150.0 mg/kg/injection, schedule: Q01DX001 (ip), vehicle: carboxymethylcellulose (CMC).

Consider `CCCCCCCCCCCCCCCC(=O)Oc1ccc(/C(CC)=C(/CC)c2ccc(OC(=O)CCCCCCCCCCCCCCC)cc2)cc1`, for which, under setting [1], the survivor count is given as 6 of 6.
On to `CN(C)CCC1(c2ccccc2)C=Cc2ccccc21` (configuration not stated), for which the survivor count reads like this: (T/C endpoint: mean survival time, dose: 100.0 mg/kg/injection, schedule: Q01DX009 (ip), vehicle: saline) 3 of 6; (T/C endpoint: mean survival time, dose: 200.0 mg/kg/injection, schedule: Q01DX009 (ip), vehicle: saline) 0 of 6; under setting [2], 0 of 6.
In the case of `CC1=NC(C(=O)O)C(=O)O1` (configuration not stated), the survivor count under setting [2] is given as 1 of 6.
For the compound `O=c1ccnc(/C=C/c2ccc(Cl)cc2)[nH]1`, the survivor count under setting [1] is 6 of 6.
In the case of `O=C(Nc1ccc(F)cc1)Nc1ccc(Nc2ccccc2)cc1`, the survivor count is 3 of 3 (T/C endpoint: mean survival time, dose: 100.0 mg/kg/injection, schedule: Q01DX009 (ip), vehicle: carboxymethylcellulose (CMC)); 3 of 3 (T/C endpoint: mean survival time, dose: 100.0 mg/kg/injection, schedule: Q04DX002 (ip), vehicle: carboxymethylcellulose (CMC)); 3 of 3 (T/C endpoint: mean survival time, dose: 200.0 mg/kg/injection, schedule: Q01DX009 (ip), vehicle: carboxymethylcellulose (CMC)); 3 of 3 (T/C endpoint: mean survival time, dose: 200.0 mg/kg/injection, schedule: Q04DX002 (ip), vehicle: carboxymethylcellulose (CMC)); 3 of 3 (T/C endpoint: mean survival time, dose: 400.0 mg/kg/injection, schedule: Q04DX002 (ip), vehicle: carboxymethylcellulose (CMC)).
Consider `O=c1[nH]c(=O)c2nc[nH]c(=O)c2[nH]1`, for which, where the note is “T/C endpoint: mean survival time, dose: 300.0 mg/kg/injection, schedule: Q01DX009 (ip), vehicle: Klucel (hydroxypropylcellulose) (HPC)”, the survivor count is on record as 6 of 6.
In the case of `CC1(CCCc2ccc([N+](=O)[O-])cc2)N=C(N)N=C(N)N1c1ccccc1` (configuration not stated), the survivor count reads like this: (T/C endpoint: mean survival time, dose: 100.0 mg/kg/injection, schedule: Q04DX003 (ip), vehicle: Klucel (hydroxypropylcellulose) (HPC)) 4 of 6; (T/C endpoint: mean survival time, dose: 200.0 mg/kg/injection, schedule: Q04DX003 (ip), vehicle: Klucel (hydroxypropylcellulose) (HPC)) 1 of 6; (T/C endpoint: mean survival time, dose: 400.0 mg/kg/injection, schedule: Q04DX003 (ip), vehicle: Klucel (hydroxypropylcellulose) (HPC)) 0 of 6.
In the case of `NNc1ccc2cccc(O)c2n1`, the survivor count under setting [3] was 4 of 4.
Consider `Cc1c(C)c(Br)c(C)c(-c2c(O)c(Br)c(-c3c(C)c(C)c(C)c(Br)c3C)c(O)c2Br)c1C`, for which, under setting [4], the survivor count is 6 of 6.
For the compound `CC(Cl)(Cl)[N+](=O)[O-]`, under setting [5], the survivor count is given as 2 of 6.
Consider `COC(=O)C(Cc1ccc(N(CCCl)CCCl)cc1)N=NNc1nc[nH]c1C(N)=O` (configuration not stated), for which the T/C is, setting by setting: (T/C endpoint: mean survival time, dose: 11.0 mg/kg/injection, schedule: Q01DX009 (ip), vehicle: other) 127 % of control; (T/C endpoint: mean survival time, dose: 17.0 mg/kg/injection, schedule: Q01DX009 (ip), vehicle: other) 125 % of control; (T/C endpoint: mean survival time, dose: 25.0 mg/kg/injection, schedule: Q01DX009 (ip), vehicle: other) 148 % of control; (T/C endpoint: mean survival time, dose: 88.0 mg/kg/injection, schedule: Q01DX001 (ip), vehicle: carboxymethylcellulose (CMC)) 132 % of control; (T/C endpoint: mean survival time, dose: 133.0 mg/kg/injection, schedule: Q01DX001 (ip), vehicle: carboxymethylcellulose (CMC)) 145 % of control; (T/C endpoint: mean survival time, dose: 250.0 mg/kg/injection, schedule: Q01DX001 (ip), vehicle: carboxymethylcellulose (CMC)) 130 % of control. Also, the T/C (T/C endpoint: median survival time, dose: 12.5 mg/kg/injection, schedule: Q01DX009 (ip), vehicle: steroid suspending solution) is 133 % of control; the T/C (T/C endpoint: median survival time, dose: 25.0 mg/kg/injection, schedule: Q01DX009 (ip), vehicle: steroid suspending solution, evaluated on day 30) is 133 % of control; the T/C (T/C endpoint: median survival time, dose: 25.0 mg/kg/injection, schedule: Q01DX009 (ip), vehicle: steroid suspending solution, evaluated on day 50) was 144 % of control; the T/C (T/C endpoint: median survival time, dose: 50.0 mg/kg/injection, schedule: Q01DX009 (ip), vehicle: steroid suspending solution) was 138 % of control. Further, the survivor count (T/C endpoint: mean survival time, dose: 38.0 mg/kg/injection, schedule: Q03HX024 (ip), vehicle: other) is reported as 4 of 6; the survivor count (T/C endpoint: mean survival time, dose: 56.0 mg/kg/injection, schedule: Q03HX024 (ip), vehicle: other) is given as 4 of 6; the survivor count (T/C endpoint: mean survival time, dose: 300.0 mg/kg/injection, schedule: Q04DX003 (ip), vehicle: other) is given as 6 of 6; the survivor count (T/C endpoint: mean survival time, dose: 450.0 mg/kg/injection, schedule: Q04DX003 (ip), vehicle: other) is 4 of 6; the survivor count (T/C endpoint: median survival time, dose: 100.0 mg/kg/injection, schedule: Q01DX009 (ip), vehicle: steroid suspending solution) is 8 of 8; the survivor count (T/C endpoint: median survival time, dose: 200.0 mg/kg/injection, schedule: Q01DX009 (ip), vehicle: steroid suspending solution) is on record as 3 of 8.
On to `CC(Oc1ccccc1)C(=O)NC(=S)Nc1cccc2ccccc12` (configuration not stated), for which the survivor count is 0 of 3 and 6 of 6 (T/C endpoint: mean survival time, dose: 200.0 mg/kg/injection, schedule: Q01DX009 (ip), vehicle: saline with Tween-80); 0 of 3 and 2 of 6 under setting [5].
`CN(C)C1C(CO)C(CO)C1(C)C` (configuration not stated): the T/C (T/C endpoint: mean survival time, dose: 400.0 mg/kg/injection, schedule: Q01DX001 (ip), vehicle: saline with Tween-80) was 142 % of control [2 of 3 alive].
With `CN(C/C=C/CN(C)P(=O)(N1CC1)N1CC1)P(=O)(N1CC1)N1CC1`, the survivor count (T/C endpoint: mean survival time, dose: 12.5 mg/kg/injection, schedule: Q01DX009 (ip), vehicle: saline) was 3 of 6; the survivor count (T/C endpoint: mean survival time, dose: 200.0 mg/kg/injection, schedule: Q01DX001 (ip), vehicle: carboxymethylcellulose (CMC)) is recorded as 1 of 6; the survivor count under setting [3] was 0 of 6. For the same compound, the T/C (T/C endpoint: mean survival time, dose: 25.0 mg/kg/injection, schedule: Q01DX009 (ip), vehicle: saline) was 125 % of control and the T/C (T/C endpoint: mean survival time, dose: 100.0 mg/kg/injection, schedule: Q01DX001 (ip), vehicle: carboxymethylcellulose (CMC)) is 147 % of control [5 of 6 alive].
For `O=C1C=C(Nc2ccc([N+](=O)[O-])cc2)C(=O)c2ccccc21`, the survivor count under setting [6] is on record as 6 of 6.
For `CC(=O)c1cccc(NC(=O)Nc2ccc(S(N)(=O)=O)cc2)c1`, under setting [5], the survivor count was 3 of 6.
As to `COc1ccc(OC)c(/C=C(\C#N)c2ccc([N+](=O)[O-])cc2)c1`, the survivor count is reported as 6 of 6 (T/C endpoint: mean survival time, dose: 16.6 mg/kg/injection, schedule: Q01DX009 (ip), vehicle: saline with Tween-80); 6 of 6 (T/C endpoint: mean survival time, dose: 25.0 mg/kg/injection, schedule: Q01DX009 (ip), vehicle: saline with Tween-80); 6 of 6 (T/C endpoint: mean survival time, dose: 37.5 mg/kg/injection, schedule: Q01DX009 (ip), vehicle: saline with Tween-80).
Turning to `FC(F)(F)c1ccc2c(c1)N(CCCN1CCN(C3CC3)CC1)c1ccccc1S2`, the T/C was 125 % of control (T/C endpoint: mean survival time, dose: 10.0 mg/kg/injection, schedule: Q01DX009 (ip), vehicle: saline) and 128 % of control [5 of 6 alive] (T/C endpoint: mean survival time, dose: 20.0 mg/kg/injection, schedule: Q01DX009 (ip), vehicle: saline). In addition, the survivor count (T/C endpoint: mean survival time, dose: 40.0 mg/kg/injection, schedule: Q01DX009 (ip), vehicle: saline) is reported as 6 of 6; the survivor count (T/C endpoint: mean survival time, dose: 75.0 mg/kg/injection, schedule: Q01DX009 (ip), vehicle: saline) is given as 2 of 6; the survivor count (T/C endpoint: mean survival time, dose: 150.0 mg/kg/injection, schedule: Q01DX009 (ip), vehicle: saline) is given as 0 of 6; the survivor count (T/C endpoint: mean survival time, dose: 300.0 mg/kg/injection, schedule: Q01DX009 (ip), vehicle: saline) is reported as 0 of 6.
As for `COC1OC2COc3ccccc3OC2C(NC#N)C1OC` (configuration not stated), the survivor count is listed as 3 of 6 (T/C endpoint: mean survival time, dose: 200.0 mg/kg/injection, schedule: Q01DX009 (ip), vehicle: Klucel (hydroxypropylcellulose) (HPC)) and 0 of 6 (T/C endpoint: mean survival time, dose: 400.0 mg/kg/injection, schedule: Q01DX009 (ip), vehicle: Klucel (hydroxypropylcellulose) (HPC)).
On to `CC1=CC(C)C(=O)N(CC(C)N2CCCC2)C(C)=C1` (configuration not stated), for which the survivor count under setting [6] is 1 of 6 and the survivor count (T/C endpoint: mean survival time, dose: 300.0 mg/kg/injection, schedule: Q01DX001 (ip), vehicle: carboxymethylcellulose (CMC)) is on record as 0 of 6.
As to `O=S(=O)(O)CS(=O)(=O)O.[Ag]`, the survivor count (T/C endpoint: mean survival time, dose: 80.0 mg/kg/injection, schedule: Q01DX001 (ip), vehicle: saline) is listed as 1 of 6.
Regarding `CCCCNC(C)(C)C(SSSC(C)=O)c1ccco1` (configuration not stated), the survivor count runs as follows: under setting [1], 0 of 6; (T/C endpoint: mean survival time, dose: 100.0 mg/kg/injection, schedule: Q04DX003 (ip), vehicle: saline with Tween-80) 6 of 6; (T/C endpoint: mean survival time, dose: 200.0 mg/kg/injection, schedule: Q04DX003 (ip), vehicle: saline with Tween-80) 3 of 6; under setting [4], 0 of 6.
